No constants are given. Whether binding was seen depends on the method and setting. For part of these data: In cells and extracts the contact can be indirect. Some binding calls cover weakened binding; strength is not graded here. For part of these data: Sequences can lack the tags named with a protein.
Tests used:
[1] = target: T1, Flag-CRABP2 (cellular retinoic acid binding protein 2) (UniProt P29373); test: co-IP; Co-IP of Flag-CRABP2 with BAX/PARKIN, Protein A + G agarose, western blotting
T1 sequence: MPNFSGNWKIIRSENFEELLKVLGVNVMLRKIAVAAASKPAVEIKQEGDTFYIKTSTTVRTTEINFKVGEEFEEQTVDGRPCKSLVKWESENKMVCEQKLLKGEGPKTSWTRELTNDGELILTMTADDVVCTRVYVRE

Protein sequences, listed by entry. Tags and fused reporters are not part of them.
UniProt O60260: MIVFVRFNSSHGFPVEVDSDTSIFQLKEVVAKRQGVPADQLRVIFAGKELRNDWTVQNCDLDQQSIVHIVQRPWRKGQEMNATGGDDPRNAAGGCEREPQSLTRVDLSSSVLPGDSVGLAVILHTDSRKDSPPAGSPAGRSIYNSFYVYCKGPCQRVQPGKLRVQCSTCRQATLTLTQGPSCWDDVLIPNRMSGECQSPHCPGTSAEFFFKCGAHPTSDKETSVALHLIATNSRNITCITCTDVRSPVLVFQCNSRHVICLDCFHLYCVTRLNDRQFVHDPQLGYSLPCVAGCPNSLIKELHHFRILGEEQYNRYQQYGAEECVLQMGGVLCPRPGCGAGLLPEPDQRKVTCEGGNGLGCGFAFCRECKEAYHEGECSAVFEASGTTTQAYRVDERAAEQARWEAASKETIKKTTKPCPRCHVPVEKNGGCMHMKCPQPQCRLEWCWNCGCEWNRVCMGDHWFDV
UniProt Q07812: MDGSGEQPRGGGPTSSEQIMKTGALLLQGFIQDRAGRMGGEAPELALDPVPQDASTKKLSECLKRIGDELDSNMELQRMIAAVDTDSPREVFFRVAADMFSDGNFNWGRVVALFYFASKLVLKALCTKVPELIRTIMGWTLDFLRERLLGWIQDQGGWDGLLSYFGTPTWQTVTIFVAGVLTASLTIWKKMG

[2] = target: T2, cellular retinoic acid binding protein 2 (endogenous) (human (endogenous in AGS)) (UniProt P29373); test: co-IP; endogenous proteins, GC (AGS) cell lysate, Protein A + G agarose, IgG control, western blotting; also in cells transfected with sh-NC/sh-CRABP2/sh-BAX/sh-PRKN
T2 sequence: T1 sequence

[3] = target: E3 ubiquitin-protein ligase parkin (human (endogenous in AGS)) (UniProt O60260); test: as above
[4] = target: T3, GST-CRABP2 fusion protein (UniProt P29373); test: pull-down; GST or GST-CRABP2 (50 μg/ml) on glutathione agarose beads incubated with BAX/PARKIN protein from E. coli at 4 °C for 6 h; washed 3 times with PBST; western blotting; both purified
T3 sequence: T1 sequence

Row | Substance | binding [1] | binding [2] | binding [3] | binding [4]
1 | E3 ubiquitin-protein ligase parkin (from UniProt O60260 1-465) | binds | binds | – | –
2 | apoptosis regulator BAX (from UniProt Q07812 1-192) | binds | binds | binds | –
3 | PARKIN protein (recombinant; 'GST-PARKIN fusion protein guided by 6×His') (from UniProt O60260 1-465) | – | – | – | binds

From publication PMC9532395
